Test results reported in publication PMC5381078, “Carboxylate derivatives of tributyltin (IV) complexes as anticancer and antileishmanial agents” (DARU Journal of Pharmaceutical Sciences, 2017).

Test system: HepG2 cell line
Test: Cytotoxicity against HepG2 cell line (SRB assay)
Assay type: cell-based, human
Details: HepG2 IC50
Experimental: Cytotoxicity was further evaluated against HepG2 cell line by sulforhodamine B (SRB) colorimetric assay. Dulbecco's Modified Eagle Medium (DMEM) supplemented with 10% FBS, 100 μg/mL streptomycin sulfate, 100 IU/mL penicillin G sodium and 0.25 μg/mL amphotericin B was used to culture HepG2 cells in CO2 (5%) incubator (Panasonic, Japan MCO-18 AC-PE) at 37 °C. An aliquot of 20 μL (1% DMSO in PBS) of samples was added to 180 μL of cell culture at an assay density of 1x10^5 cells/mL in 96-well plate. The plate was incubated at 37 °C for 72 h in CO2 incubator. Final concentration of compounds/standard was 20 μg/mL. Doxorubicin and 1% v/v DMSO in PBS ere used as positive and negative controls respectively. An equivalent number of cells in twelve wells of 96-well plate were incubated for 1 h at 37 °C and labeled as day zero control. Later, cells were fixed by adding 50 μL of cold 20% w/v TCA for 1 h at 4 °C. These were washed with tap water, air dried and stained with 50 μL of 0.057% w/v SRB in 1% v/v acetic acid for 30 min at room temperature. Cells were again washed with 1% v/v acetic acid, dried overnight and 200 μL of 10 mM Tris base (pH 10) was used to solubilize the bound dye for 1 h. Absorbance was measured at 515 nm using a microplate reader. Percentage of growth inhibition was calculated as: % inhibition = 100 – [(As – Ao) / (An – Ao) × 100], where, Ao, As and An are absorbance of day zero control, samples and negative control respectively. IC50 values were determined using 3-fold dilutions of the samples.

Row | SMILES | Fold reduction of potency compared to Ch-458 | Fold enhancement of potency compared to Ch-458
1 | CCC[CH2][Sn]([CH2]CCC)([CH2]CCC)[O]C(=O)CCC(=O)Nc1ccc(C(=O)[O][Sn]([CH2]CCC)([CH2]CCC)[CH2]CCC)cc1 [Ch-448, tributylstannyl 4-(4-oxo-4-((tributylstannyl)oxy)butanamido)benzoate] | 2.18 fold | –
2 | CCC[CH2][Sn]([CH2]CCC)([CH2]CCC)[O]C(=O)/C=C\C(=O)Nc1cccc(C)c1C [Ch-459, tributylstannyl (Z)-4-((2,3-dimethylphenyl)amino)-4-oxobut-2-enoate] | – | 2.54 fold
3 | CCC[CH2][Sn]([CH2]CCC)([CH2]CCC)[O]C(=O)COc1ccc(OCC(=O)[O][Sn]([CH2]CCC)([CH2]CCC)[CH2]CCC)cc1 [Ch-409, bis(tributylstannyl) 2,2’-(1,4-phenylenebis(oxy))diacetate] | – | 19 fold
4 | CCC[CH2][Sn]([CH2]CCC)([CH2]CCC)[O]C(=O)c1ccccc1C(=O)Nc1cccc2ccccc12 [Ch-450, tributylstannyl 2-(naphthalene-1-ylcarbamoyl)benzoate] | 1.77 fold | –
5 | CCC[CH2][Sn]([CH2]CCC)([CH2]CCC)[O]C(=O)/C=C\C(=O)Nc1ccc(C(=O)OCC)cc1 [Ch-431, ethyl (Z)-4-(4-oxo-4-((tributylstannyl)oxy)but-2-enamido)benzoate] | 3.46 fold | –
